# Source: PubChem BioAssay AID1347076 (National Center for Advancing Translational Sciences (NCATS), 2019)
# Hit rate of the full screen: of about 400,000 compounds, about 13,000 (3.2%) were called active. Inconclusive means that the source gave no clear call. Such entries were picked first, then a sample of the others. Calls follow the shape of the dose curve; as a rule, active = well fitted cell-killing curve with a large enough effect; inconclusive = small, poorly fitted or top-dose-only effect, or effect the other way; inactive = flat fitted curve, though single readings scatter. Potencies beside an inconclusive call are fits to weak or partial responses and may not hold up.
# Test: qHTS assay for MDR1-selective chemotherapeutics: Primary screen using the drug-selected MDR subline cells KB-V1; also: nearly all actives have a fitted effect of over 60% in size
# Settings: KB-V1 MDR cells viability, CellTiter-Glo, 72 h; activity change, negative = cytotoxicity: at 46.1 µM (top of the series)
# Method in brief: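 KB-V1, DMEM (no phenol red) + 10% FBS; cpd pin-transferred, titration series; 72 h, 37 degrees C; CellTiter-Glo, luminescence. Data normalized, curve-fit.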
# % is scaled to controls: 0 for no effect and ±100 for the full control effect; potency is read from the fitted curve at half-maximal effect.
Structure (SMILES),Potency,"activity change, negative = cytotoxicity"
Cc1ccccc1OCCOC(=O)c1ccc(S(=O)(=O)N2CCCC2)cc1,"inconclusive: 20.6 µM [cytotoxic, single point]",
CCOC(=O)c1[nH]c(C)c(CCC(=O)N2CCN(c3cccc(OC)c3)CC2)c1C,"inconclusive: 14.6 µM [cytotoxic, single point]",
CN(Cc1nc2ccccc2c(=O)[nH]1)C(=O)c1ccccc1OCc1ccc(Cl)cc1,,inactive: -7.6%
CCC(=O)N1CCc2cc(Br)cc(S(=O)(=O)CCC(=O)NCc3ccccc3OC)c21,,inactive: 24.4%
CC(=O)Nc1cccc(-c2cccc3nccn23)c1,,inactive: 2.32%
Cc1ccc(NC(=O)Cc2ccc(-n3c(C)nc4cccnc43)cc2)c(Cl)c1,active: 5.8 µM,
CC(=O)c1ccc(-c2cnc3c(NC=O)cc(-c4ccccc4Oc4ccccc4)cn23)cc1,"inconclusive: 18.4 µM [cytotoxic, partial curve, poor fit]",
CC(C)CCNC(=O)c1ccccc1SCC(=O)NC1CCCCCCC1,active: 5.8 µM,
O=C(Cn1cnc([N+](=O)[O-])n1)NCCO,"inconclusive: 18.4 µM [rising, partial curve, poor fit]",
Cc1ccc(NCSc2ccc(Cl)cc2)cc1,"inconclusive: 7.31 µM [rising, partial curve, poor fit]",
Cc1ccc(S(=O)(=O)N(C)C[C@@H]2OCc3cn(nn3)CCCC(=O)N([C@@H](C)CO)C[C@H]2C)cc1,,inconclusive: 25.8%
O=C(O)/C(=C\c1ccccc1Cl)c1ccc(S(=O)(=O)N2CCCCC2)s1,"inconclusive: 29.1 µM [rising, single point]",
CC(C)(C)c1ccc(/C=C/C(=O)c2ccc(NC3=NCCCS3)cc2)cc1,"inconclusive: 29.1 µM [cytotoxic, partial curve, poor fit]",
CN(C(=O)c1coc(=O)c2ccccc12)c1ccccc1Cl,"inconclusive: 23.1 µM [rising, single point]",
Cc1ccc(CNC(=O)CSc2nnc3n2CCCCC3)cc1,"inconclusive: 29.1 µM [rising, single point]",
Cc1ccc(Cl)cc1N1CCN(S(=O)(=O)c2ccc3c(c2)oc(=O)n3C)CC1,active: 13 µM,
O=C(COc1coc(CN2CCN(c3cccc(Cl)c3)CC2)cc1=O)NC1CCCC1,"inconclusive: 6.51 µM [cytotoxic, partial curve]",
O=C(COC(=O)c1ccc2ccccc2c1)NCc1ccccc1,"inconclusive: 11.6 µM [rising, partial curve, poor fit]",
CN(C)c1ncnc2c1ncn2[C@H]1CN(Cc2ccco2)C[C@@H](CO)O1,,inactive: 3.02%
CC(C)(C)n1ncc2c(=O)n(CC(=O)c3ccccc3)cnc21,active: 14.6 µM,
CC1CCCN(S(=O)(=O)c2ccc3c(c2)OCCO3)C1 (stereo unspecified),,inactive: -12.7%
COc1ccc(OC)c(NC(=O)C2(C)CCN2C(=O)C(C)(C)c2ccccc2)c1 (stereo unspecified),"inconclusive: 2.59 µM [cytotoxic, partial curve]",
CCC1(c2ccccc2)NC(=O)N(CC(=O)Nc2cc(C(F)(F)F)ccc2N2CCCC2)C1=O (stereo unspecified),"inconclusive: 32.6 µM [cytotoxic, partial curve, poor fit]",
COc1ccc(Br)c(C=O)c1OS(=O)(=O)c1ccc(C)cc1,"inconclusive: 23.1 µM [cytotoxic, single point]",

Structure (SMILES),Potency,"activity change, negative = cytotoxicity"
Cc1ccc(CNC(=O)C(=O)Nc2c3c(nn2-c2ccccc2)CSC3)cc1,,inactive: -1.41%
NCCCCCc1cn([C@@H](CO)C(=O)NCCCCCCCCCCC(=O)N2CCNCC2)nn1,"inconclusive: 23.1 µM [cytotoxic, single point]",
CCCCn1nc(C(=O)Nc2cc(C(F)(F)F)ccc2N2CCOCC2)ccc1=O,"inconclusive: 0.58 µM [cytotoxic, full curve, poor fit]",
CCOC(=O)C1CCN(C(=O)CCc2nnc3ccc(NCc4ccco4)nn23)CC1,"inconclusive: 20.6 µM [rising, single point]",
COc1ccccc1C(=O)NCCn1cc(SCC(=O)Nc2ccccc2F)c2ccccc21,"inconclusive: 29.1 µM [cytotoxic, single point]",
COc1ccc(CNc2ncc(-c3ccccc3)n2C)c2ccccc12,"inconclusive: 25.9 µM [cytotoxic, partial curve, poor fit]",
COCCN(CCOC)Cc1cc(=O)oc2cc(C)c(Cl)cc12,,inactive: -0.431%
CC1=Nn2c(nnc2-c2ccccc2)SC1,"inconclusive: 20.6 µM [rising, single point]",
Cc1nnc(SCc2ccc3c(c2)OCO3)s1,,inconclusive: -47.4%
O=C(Cc1ccccc1)N/N=C/c1ccc(Cl)cc1Cl,active: 23.1 µM,
C[C@H](O)C#Cc1cnc2c(c1)C(=O)N([C@H](C)CO)C[C@@H](C)[C@@H](CN(C)Cc1ccc(-c3ccccc3)cc1)O2,,inactive: 18.2%
O=c1c2c3c(sc2n(CCN2CCCCC2)c(=O)n1Cc1ccco1)CCCCC3,"inconclusive: 35.5 µM [cytotoxic, single point]",
CC12C=CC3(CN(Cc4ccccc4)C(=O)C3C1C(=O)NCc1ccco1)O2 (stereo unspecified),"inconclusive: 35.5 µM [rising, partial curve, poor fit]",
O=C(Cc1ccc(Br)cc1)N/N=C/c1cccnc1,,inactive: -9.55%
Oc1c(N=Nc2nn[nH]n2)ccc2ccccc12,"inconclusive: 23.1 µM [cytotoxic, single point]",
COc1ccc(CCNC(=O)c2c(O)nc3c(C)cccn3c2=O)cc1,"inconclusive: 20.6 µM [cytotoxic, single point]",
Cc1cccc(NC(=O)c2ccc(-n3cccn3)c([N+](=O)[O-])c2)c1,,inactive: -11.1%
Cc1[nH]c2ccc(C(=O)OC(C)C(=O)N(C)c3ccccc3)cc2c1C (stereo unspecified),"inconclusive: 8.2 µM [cytotoxic, partial curve]",
C[C@@H]1CN([C@@H](C)CO)C(=O)c2c(c3ccccc3n2C)-c2ccccc2CO[C@H]1CN(C)S(=O)(=O)c1ccc(C(F)(F)F)cc1,,inactive: -6.95%
c1ccc(Cc2nnc3sc(-c4cccs4)nn23)cc1,"inconclusive: 29.1 µM [cytotoxic, single point]",
CCOc1ccccc1N1CCN(C(=O)c2cccs2)CC1,,inactive: -6.32%
CC1=C(C(=O)N(C(C)C)C(C)C)CC(CC(=O)NCCc2ccccn2)C(=O)N1CCCN1CCCC1=O (stereo unspecified),"inconclusive: 3.26 µM [cytotoxic, full curve, poor fit]",
CCOc1cc(C(=S)N2CCCC2)ccc1OCc1ccccc1,"inconclusive: 10.3 µM [cytotoxic, partial curve, poor fit]",
O=C(NC(NC(=S)Nc1c(Cl)cc(Cl)cc1Cl)C(Cl)(Cl)Cl)OCc1ccccc1 (stereo unspecified),active: 11.6 µM,

# Two compounds picked at random from the list so far, as already listed:
Structure (SMILES),Potency,"activity change, negative = cytotoxicity"
Cc1cccc(NC(=O)c2ccc(-n3cccn3)c([N+](=O)[O-])c2)c1,,inactive: -11.1%
CCOc1cc(C(=S)N2CCCC2)ccc1OCc1ccccc1,"inconclusive: 10.3 µM [cytotoxic, partial curve, poor fit]",

# Next part:

Structure (SMILES),Potency,"activity change, negative = cytotoxicity"
CCOC(=O)c1c(-c2cc(OC)c(OC)c(OC)c2)csc1NC(=O)c1ccccc1,"inconclusive: 4.11 µM [cytotoxic, partial curve, poor fit]",
COc1ccc(Br)cc1CNC(=O)CCN1C(=O)COc2ccccc21,"inconclusive: 16.4 µM [cytotoxic, single point]",
Cc1cc(C)cc(NC(=O)CSc2nnc(-c3ccccc3)n2N)c1,"inconclusive: 9.2 µM [cytotoxic, partial curve, poor fit]",
COc1cc(C(N)=O)ccc1OCc1ccccc1,"inconclusive: 23.1 µM [rising, partial curve, poor fit]",
Oc1ccc(Cl)cc1C1=NNC(c2ccc(Cl)cc2)C1 (stereo unspecified),"inconclusive: 20.6 µM [cytotoxic, partial curve, poor fit]",
CCOc1ccc(S(=O)(=O)N(CC(N)=O)c2ccc(C)cc2)cc1,,inactive: -0.847%
c1ccc(CNc2nc(NCc3cccs3)nc3ccsc23)cc1,,inactive: -3.05%
COc1cccc(-c2nc(SCC(=O)Nc3ccc4c(c3)OCCO4)c(-c3ccccc3)[nH]2)c1,"inconclusive: 16.4 µM [cytotoxic, single point]",
CCOc1ccc2c(c1)OC(c1ccc(OC)cc1)(C(F)(F)F)NC2=O (stereo unspecified),active: 5.17 µM,
Cn1c(SCc2c(Cl)cccc2Cl)nnc1-c1cccs1,active: 18.4 µM,
COc1ccc(N2CCN(C(=O)c3cc(-c4cc(OC)ccc4OC)nc4ccccc34)CC2)cc1,"inconclusive: 7.31 µM [cytotoxic, partial curve]",
CCCNC(=O)COc1coc(CN2CCN(c3cccc(Cl)c3)CC2)cc1=O,,inactive: -29.1%
CCn1c(/C=C/c2ccccc2)nc2ccccc2c1=O,"inconclusive: 29.1 µM [cytotoxic, single point]",
CCOC(=O)/C(C#N)=C\c1ccc(O)c(OC)c1,,inactive: 3.25%
CCN(CC(=O)Nc1cccc(C#N)c1)CC(=O)Nc1cccc(OC)c1,"inconclusive: 9.2 µM [cytotoxic, partial curve, poor fit]",
COCCCNc1oc(-c2cccs2)nc1S(=O)(=O)c1ccc(C)cc1,active: 14.6 µM,
Cn1c(=O)[nH]c(=O)c2c1nc(N1CCN(CCO)CC1)n2Cc1ccccc1Cl,,inactive: -12.7%
CCCCC(=O)NC(c1ccccc1Cl)c1c(O)ccc2ccccc12 (stereo unspecified),,inactive: 0%
O=C(Nc1ccccn1)C12CC3CC(CC(C3)C1)C2,,inactive: -0.294%
Cn1c(SCC(=O)N2CCCc3ccccc32)nnc1-c1ccccc1,"inconclusive: 9.2 µM [cytotoxic, partial curve]",
O=C(CC(=O)c1cc(Cl)ccc1O)c1ccccc1,"inconclusive: 29.1 µM [cytotoxic, single point]",
Cc1cc(C)nc(NC(=O)C(C)C)n1,"inconclusive: 20.6 µM [rising, single point]",
O=[N+]([O-])c1ccc(CSc2ccc(S(=O)(=O)N3CCOCC3)cn2)cc1,"inconclusive: 23.1 µM [cytotoxic, partial curve]",

# Whole records, looked up by structure:
# COCCCNc1oc(-c2cccs2)nc1S(=O)(=O)c1ccc(C)cc1 as listed: Potency: active: 14.6 µM
# O=C(CC(=O)c1cc(Cl)ccc1O)c1ccccc1 as listed: Potency: inconclusive: 29.1 µM [cytotoxic, single point]
